These are yes or no findings as the source states them, for the method shown. Binding seen in cells or lysates may run through a third protein. Some results given as binding are weak or reduced against the parent protein; the word gives no strength. For some of these results: Tags and fused reporters may be left off the sequences shown.
Key:
[1] = molecular target: GST-EF1α fusion protein (human) (UniProt P68104); test: pull-down
[2] = molecular target: T1, GST-p23 fusion protein (human) (UniProt Q15185); test: pull-down
T1 sequence: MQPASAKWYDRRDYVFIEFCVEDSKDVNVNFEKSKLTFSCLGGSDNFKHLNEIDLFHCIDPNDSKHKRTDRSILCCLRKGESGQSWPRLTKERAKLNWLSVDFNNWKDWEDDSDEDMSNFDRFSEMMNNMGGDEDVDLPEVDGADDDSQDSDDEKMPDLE

Amino acid sequences for entries named in this document (tags omitted). Residues count along the entry.
UniProt P68104, residues 2-462: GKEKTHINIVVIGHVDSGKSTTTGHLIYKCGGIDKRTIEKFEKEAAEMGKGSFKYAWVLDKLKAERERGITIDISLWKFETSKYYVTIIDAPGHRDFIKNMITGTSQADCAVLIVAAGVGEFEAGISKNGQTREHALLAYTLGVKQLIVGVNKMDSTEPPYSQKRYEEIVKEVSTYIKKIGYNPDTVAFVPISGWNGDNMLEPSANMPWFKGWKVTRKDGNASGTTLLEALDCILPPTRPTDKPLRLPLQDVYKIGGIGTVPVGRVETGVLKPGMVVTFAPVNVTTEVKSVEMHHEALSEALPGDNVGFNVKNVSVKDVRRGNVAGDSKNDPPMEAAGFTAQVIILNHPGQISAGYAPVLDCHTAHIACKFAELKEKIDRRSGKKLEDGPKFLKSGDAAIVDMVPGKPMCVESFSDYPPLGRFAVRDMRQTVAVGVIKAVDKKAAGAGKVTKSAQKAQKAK
UniProt P03427: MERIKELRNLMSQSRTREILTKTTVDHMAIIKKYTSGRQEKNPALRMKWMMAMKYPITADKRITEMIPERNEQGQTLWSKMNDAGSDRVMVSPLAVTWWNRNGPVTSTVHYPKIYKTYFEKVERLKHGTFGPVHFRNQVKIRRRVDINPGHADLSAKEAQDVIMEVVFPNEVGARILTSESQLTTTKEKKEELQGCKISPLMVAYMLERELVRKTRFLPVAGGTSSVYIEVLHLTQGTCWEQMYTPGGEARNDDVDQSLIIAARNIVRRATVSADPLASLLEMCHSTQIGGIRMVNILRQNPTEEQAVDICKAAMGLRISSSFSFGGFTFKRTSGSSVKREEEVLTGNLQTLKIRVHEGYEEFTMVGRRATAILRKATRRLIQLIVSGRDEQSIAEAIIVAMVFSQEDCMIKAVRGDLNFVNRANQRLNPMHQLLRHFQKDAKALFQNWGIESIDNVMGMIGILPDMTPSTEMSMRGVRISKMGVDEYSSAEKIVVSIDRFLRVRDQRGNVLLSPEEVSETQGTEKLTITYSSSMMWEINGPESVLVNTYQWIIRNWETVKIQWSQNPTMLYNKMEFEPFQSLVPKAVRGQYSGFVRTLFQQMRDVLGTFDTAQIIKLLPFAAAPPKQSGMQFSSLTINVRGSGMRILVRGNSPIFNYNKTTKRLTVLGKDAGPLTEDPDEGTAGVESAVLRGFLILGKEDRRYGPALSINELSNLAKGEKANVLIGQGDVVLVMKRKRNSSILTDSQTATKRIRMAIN
UniProt P03430: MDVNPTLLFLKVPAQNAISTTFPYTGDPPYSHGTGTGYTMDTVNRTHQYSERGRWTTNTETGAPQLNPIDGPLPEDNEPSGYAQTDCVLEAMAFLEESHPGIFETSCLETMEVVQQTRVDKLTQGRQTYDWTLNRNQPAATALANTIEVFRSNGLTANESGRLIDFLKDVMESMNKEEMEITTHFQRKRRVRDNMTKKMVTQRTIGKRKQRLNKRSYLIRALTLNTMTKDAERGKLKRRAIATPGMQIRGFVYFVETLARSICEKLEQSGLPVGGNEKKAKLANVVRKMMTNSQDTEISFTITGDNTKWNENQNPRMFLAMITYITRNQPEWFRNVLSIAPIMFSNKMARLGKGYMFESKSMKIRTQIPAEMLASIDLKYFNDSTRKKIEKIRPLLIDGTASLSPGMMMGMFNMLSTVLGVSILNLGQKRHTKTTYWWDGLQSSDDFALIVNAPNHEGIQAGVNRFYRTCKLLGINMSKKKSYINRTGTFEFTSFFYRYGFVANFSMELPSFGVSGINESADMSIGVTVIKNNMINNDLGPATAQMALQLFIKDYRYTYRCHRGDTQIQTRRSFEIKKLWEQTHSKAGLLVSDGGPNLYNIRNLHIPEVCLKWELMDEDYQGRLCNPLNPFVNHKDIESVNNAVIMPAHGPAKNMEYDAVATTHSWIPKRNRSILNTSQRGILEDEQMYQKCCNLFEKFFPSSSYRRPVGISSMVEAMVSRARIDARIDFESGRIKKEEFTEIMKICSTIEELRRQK

Substance	binding [1]	binding [2]
WSN-PB2 protein, transiently expressed (from UniProt P03427 1-759)	no binding	binds
WSN-PB1 protein, transiently expressed (from UniProt P03430 1-757)	no binding	binds
